Experimental data from PubChem BioAssay AID504467 (National Center for Advancing Translational Sciences (NCATS), 2011).
The campaign covered roughly 330,000 compounds. About 7,700 (2.3%) were called active. Inconclusive means that the source gave no clear call. Such entries were picked first, then a sample of the others. Calls come from the whole dose curve; as a rule, active = well fitted inhibition curve with a large enough effect; inconclusive = small, poorly fitted or top-dose-only effect, or effect the other way; inactive = flat fitted curve, though single readings scatter. Where the call is inconclusive, the potency comes from a doubtful curve fit.

experiment: qHTS screen for small molecules that inhibit ELG1-dependent DNA repair in human embryonic kidney (HEK293T) cells expressing luciferase-tagged ELG1; details: HEK293T ELG1-luciferase reporter, luminescence, 16 h, DNA damage induced by 5-fluorouridine; activity change, negative = inhibition: at 46.1 µM (top of the series); note: nearly all actives have a fitted effect of over 55% in size
Procedure, shortened: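 Quantitative HTS, concentration-response format. 2,000 cells/well co-treated with 5-fluorouridine and compound, 16 hr in 5% CO2 at 37 °C; ONE-Glo luminescence read after 30 min.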
% is set by controls: 0 for no effect and ±100 for the full control effect; potency is the fitted concentration of half-maximal effect.

Row | Structure (SMILES) | Potency | activity change, negative = inhibition
1 | CC(=O)c1ccc(OCc2cc(=O)n3ccsc3n2)cc1 | inconclusive: 18.4 µM [activator, partial curve] | –
2 | CCOc1ccc(-c2cn(-c3ccccc3OC)c(=S)[nH]2)cc1 | – | inactive: 2.84%
3 | COc1ccccc1N1CCN(C(=O)c2cc(-c3ccc(Cl)c(Cl)c3)on2)CC1 | – | inactive: 22.4%
4 | CCC(=O)N(CC)C1=C(O)c2ccccc2C(=O)C1=O | – | inactive: -0.501%
5 | Cc1ccccc1CN1CCNC(=O)C1CC(=O)NCCN1CCCCC1=O (stereo unspecified) | inconclusive: 18.3 µM [activator, partial curve, poor fit] | –
6 | C/C(=N\NC(=O)c1sccc1C)c1cccnc1 | inconclusive: 14.6 µM [activator, partial curve] | –
7 | COc1ccccc1-c1noc(-c2ccccc2C(=O)NCc2ccco2)n1 | inconclusive: 29.1 µM [inhibitor, single point] | –
8 | CC(/C=C/c1ccco1)=N/NC(=O)OC(C)(C)C | inconclusive: 18.4 µM [activator, partial curve] | –
9 | NS(=O)(=O)c1ccc(NC(=O)COC(=O)CCCN2C(=O)c3cccc4cccc(c34)C2=O)cc1 | – | inactive: -0.19%
10 | CCOC(=O)C1CCCN(C(=O)CCc2nnc(-c3ccc(C(C)=O)s3)o2)C1 (stereo unspecified) | inconclusive: 20.6 µM [activator, partial curve] | –
11 | O=C(Nc1cccc(-c2ccc(F)cc2)c1)C1CCCN(C(=O)c2cscn2)C1 (stereo unspecified) | – | inactive: 0.663%
12 | O=C(N/N=C/c1ccccc1[N+](=O)[O-])c1cnccn1 | inconclusive: 20.6 µM [activator, partial curve, poor fit] | –
13 | Cc1cc2cc(CNC(=O)Cc3cccs3)ccc2n1C | – | inactive: -23.2%
14 | C=CCC1(CC=C)CCCN1C(=O)C1CCC(=O)N(CCc2ccccc2)C1 (stereo unspecified) | inconclusive: 13 µM [activator, partial curve] | –
15 | COc1ccccc1NC(=O)c1ccc2[nH]c(C)c(C)c2c1 | inconclusive: 20.6 µM [activator, partial curve] | –
16 | COc1ccc(NC(=S)Nc2ccc(N)c([N+](=O)[O-])c2)cc1 | inconclusive: 9.2 µM [activator, partial curve] | –
17 | COc1cccc(/C=C(/C(=O)OCC(N)=O)c2ccccc2)c1 | – | inactive: -2.97%
18 | N/C(=N\OC(=O)CSc1ccccc1)c1ccccn1 | inconclusive: 16.4 µM [activator, partial curve] | –
19 | CCOC(=O)Nc1sc2c(c1C#N)CCCC2 | inconclusive: 16.4 µM [activator, partial curve] | –
20 | CCOC(=O)c1cc(-c2cc(OC)c(OC)c(OC)c2)nc2c1c(=O)[nH]c(=O)n2Cc1ccccc1 | – | inactive: 12.7%
21 | Cc1[nH]c2ccccc2c1/C=N\NC(=O)c1ccco1 | inconclusive: 14.6 µM [activator, partial curve] | –
22 | Clc1ccc(CN2CCc3c([nH]c4ccccc34)C2)cc1Cl | inconclusive: 18.3 µM [inhibitor, single point] | –
23 | CN(C(=O)CCn1c(=S)oc2ccccc21)c1ccc(F)cc1 | inconclusive: 23.1 µM [inhibitor, single point] | –
24 | CC(C)[C@H]1COCCS(=O)(=O)N1Cc1ccccc1-c1ccc(F)cc1 | – | inactive: 2.12%

Row | Structure (SMILES) | Potency | activity change, negative = inhibition
25 | COCCN(C(=O)COC(=O)c1cc2ccccc2cc1O)c1c(N)n(Cc2ccccc2)c(=O)[nH]c1=O | – | inactive: 15.9%
26 | CCCC(c1nnnn1CC(=O)OCC)N(Cc1cc2ccc(C)cc2[nH]c1=O)C1CCCC1 (stereo unspecified) | inconclusive: 0.103 µM [inhibitor, full curve, poor fit] | –
27 | CCOc1ccc(N(CC(=O)N/N=C/c2ccc(OC(C)C)cc2)S(C)(=O)=O)cc1 | – | inactive: 8.65%
28 | COc1ccc(C(=O)c2cnc[nH]2)cc1 | inconclusive: 29.1 µM [activator, single point] | –
29 | COC(=O)C1CSC(c2ccc(Cl)cc2)N1C(=O)c1ccccc1 (stereo unspecified) | – | inactive: 7.24%
30 | Cc1nnc(-c2cnn(C)c2N)n1Cc1ccccc1 | – | inactive: 3.71%
31 | Cc1ccc(-c2cc(C(=O)N3CCN(c4ncccn4)CC3)c3cc(Br)ccc3n2)o1 | inconclusive: 20.6 µM [inhibitor, single point] | –
32 | c1ccc(-c2ccc(OCCCn3cncn3)cc2)cc1 | inconclusive: 14.6 µM [activator, partial curve, poor fit] | –
33 | COc1ccc(S(=O)(=O)N2CC3CCCN3c3cc(C(F)(F)F)ccc32)cc1 (stereo unspecified) | – | inactive: 12.1%
34 | CC(=O)c1ccsc1-c1c(C)cc2oc(=O)cc(-c3ccccc3)c2c1C | inconclusive: 18.3 µM [inhibitor, single point] | –
35 | CCC1CCCCN1C(=O)CCNS(=O)(=O)c1ccc2c(c1)oc(=O)n2C (stereo unspecified) | – | inactive: 6.69%
36 | CCc1ccc(/C=C2\CN(CC)Cc3c2nc2ccccc2c3C(=O)O)cc1 | inconclusive: 14.6 µM [activator, partial curve, poor fit] | –
37 | CCSc1ccc2c(c1)N(CCCN1CCN(C)CC1)c1ccccc1S2 | inconclusive: 0.891 µM [activator, single point] | –
38 | CCc1cc(OCCCCNCc2ccccc2)ccc1Cl | – | inactive: -1.61%
39 | CCC(=O)Nc1ccc(-c2ccc(NC(=O)CC)c(OC)c2)cc1OC | inconclusive: 23.1 µM [activator, partial curve, poor fit] | –
40 | COc1ccc(C(=O)O)cc1S(=O)(=O)N(C)CCc1cccnc1 | inconclusive: 16.4 µM [activator, partial curve, poor fit] | –
41 | CC(=O)N1CCc2cc(Br)cc(S(=O)(=O)NCc3ccc(Cl)cc3)c21 | inconclusive: 4.61 µM [inhibitor, partial curve, poor fit] | –
42 | COC(=O)Nc1ccc2c(c1)N(C(=O)CCN(C)C)c1ccccc1CC2 | – | inactive: 7.79%
43 | CC1CCCN(C(=O)COC(=O)c2ccc3[nH]c4c(c3c2)CCCC4)C1 (stereo unspecified) | inconclusive: 23.1 µM [activator, single point] | –
44 | COc1ccc(Nc2ncc(C#N)c(N)n2)c(OC)c1 | inconclusive: 20.6 µM [activator, single point] | –
45 | Cc1ccccc1NC(=O)c1cnc2ccccn2c1=O | inconclusive: 0.326 µM [activator, partial curve, poor fit] | –
46 | CCN(CC)c1ccc(Nc2nc(-c3cccnc3)cs2)cc1 | inconclusive: 3.66 µM [activator, full curve] | –
47 | O=C(CSc1nnc(-c2cccnc2)n1Cc1ccco1)N1c2ccccc2Sc2ccccc21 | inconclusive: 23.1 µM [inhibitor, single point] | –
48 | COc1ccc(C(=O)N=c2sc3ccccc3n2C)cc1 | inconclusive: 7.3 µM [activator, partial curve] | –

Quoted from the results shown, 21 compounds:
Row | Structure (SMILES) | Potency | activity change, negative = inhibition
20 | CCOC(=O)c1cc(-c2cc(OC)c(OC)c(OC)c2)nc2c1c(=O)[nH]c(=O)n2Cc1ccccc1 | – | inactive: 12.7%
21 | Cc1[nH]c2ccccc2c1/C=N\NC(=O)c1ccco1 | inconclusive: 14.6 µM [activator, partial curve] | –
22 | Clc1ccc(CN2CCc3c([nH]c4ccccc34)C2)cc1Cl | inconclusive: 18.3 µM [inhibitor, single point] | –
23 | CN(C(=O)CCn1c(=S)oc2ccccc21)c1ccc(F)cc1 | inconclusive: 23.1 µM [inhibitor, single point] | –
24 | CC(C)[C@H]1COCCS(=O)(=O)N1Cc1ccccc1-c1ccc(F)cc1 | – | inactive: 2.12%
25 | COCCN(C(=O)COC(=O)c1cc2ccccc2cc1O)c1c(N)n(Cc2ccccc2)c(=O)[nH]c1=O | – | inactive: 15.9%
26 | CCCC(c1nnnn1CC(=O)OCC)N(Cc1cc2ccc(C)cc2[nH]c1=O)C1CCCC1 (stereo unspecified) | inconclusive: 0.103 µM [inhibitor, full curve, poor fit] | –
27 | CCOc1ccc(N(CC(=O)N/N=C/c2ccc(OC(C)C)cc2)S(C)(=O)=O)cc1 | – | inactive: 8.65%
28 | COc1ccc(C(=O)c2cnc[nH]2)cc1 | inconclusive: 29.1 µM [activator, single point] | –
29 | COC(=O)C1CSC(c2ccc(Cl)cc2)N1C(=O)c1ccccc1 (stereo unspecified) | – | inactive: 7.24%
30 | Cc1nnc(-c2cnn(C)c2N)n1Cc1ccccc1 | – | inactive: 3.71%
31 | Cc1ccc(-c2cc(C(=O)N3CCN(c4ncccn4)CC3)c3cc(Br)ccc3n2)o1 | inconclusive: 20.6 µM [inhibitor, single point] | –
32 | c1ccc(-c2ccc(OCCCn3cncn3)cc2)cc1 | inconclusive: 14.6 µM [activator, partial curve, poor fit] | –
33 | COc1ccc(S(=O)(=O)N2CC3CCCN3c3cc(C(F)(F)F)ccc32)cc1 (stereo unspecified) | – | inactive: 12.1%
34 | CC(=O)c1ccsc1-c1c(C)cc2oc(=O)cc(-c3ccccc3)c2c1C | inconclusive: 18.3 µM [inhibitor, single point] | –
35 | CCC1CCCCN1C(=O)CCNS(=O)(=O)c1ccc2c(c1)oc(=O)n2C (stereo unspecified) | – | inactive: 6.69%
36 | CCc1ccc(/C=C2\CN(CC)Cc3c2nc2ccccc2c3C(=O)O)cc1 | inconclusive: 14.6 µM [activator, partial curve, poor fit] | –
37 | CCSc1ccc2c(c1)N(CCCN1CCN(C)CC1)c1ccccc1S2 | inconclusive: 0.891 µM [activator, single point] | –
38 | CCc1cc(OCCCCNCc2ccccc2)ccc1Cl | – | inactive: -1.61%
39 | CCC(=O)Nc1ccc(-c2ccc(NC(=O)CC)c(OC)c2)cc1OC | inconclusive: 23.1 µM [activator, partial curve, poor fit] | –
40 | COc1ccc(C(=O)O)cc1S(=O)(=O)N(C)CCc1cccnc1 | inconclusive: 16.4 µM [activator, partial curve, poor fit] | –

Following part.

Row | Structure (SMILES) | Potency | activity change, negative = inhibition
49 | Cc1cc(C)n2nc(C(=O)OC(C)C(=O)c3ccccc3)nc2n1 (stereo unspecified) | – | inactive: -0.625%
50 | O=C(CSc1nc2c(oc3ccccc32)c(=O)n1CC1CCCO1)NCc1ccccc1 (stereo unspecified) | – | inactive: 0.243%
51 | Cc1cc(NC(=O)CSCC(=O)OCC(=O)c2cccc(Br)c2)no1 | inconclusive: 29.1 µM [activator, single point] | –
52 | Cc1ccc(S(=O)(=O)N2CCOCC2)cc1NC(=O)C(c1ccc(Cl)cc1)C(C)C (stereo unspecified) | inconclusive: 32.6 µM [inhibitor, partial curve, poor fit] | –
53 | CCOCCCNC(=O)c1cn(CC)c2ccc(S(=O)(=O)N3CCCC3)cc2c1=O | – | inactive: 2.23%
54 | COCC(=O)c1[nH]c2ccccc2c1C | – | inactive: 4.65%
55 | CC(C)CNC(=S)NC(=O)c1ccc(Cl)cc1 | inconclusive: 16.4 µM [activator, partial curve, poor fit] | –
56 | Cc1cccc(Oc2sc(C(=O)c3ccccc3)c(N)c2C#N)c1C | inconclusive: 18.4 µM [inhibitor, partial curve] | –
57 | O=C(Nc1ccc2c(c1)OCCO2)c1cccs1 | inconclusive: 5.17 µM [activator, partial curve] | –
58 | O=C(N/N=C/c1ccsc1)c1cc(-c2cccs2)nc2ccccc12 | inconclusive: 11.6 µM [inhibitor, partial curve] | –
59 | CCC(CO)NC1=CC(=O)CCC1 (stereo unspecified) | – | inactive: -7.21%
60 | COc1cccc2cc(-c3cc(=O)oc4cc(C)c(OCC(C)=O)cc34)oc12 | active: 5.17 µM | –
61 | COc1ccc(-n2c(COc3ccc4ccccc4c3)nnc2SCC(=O)NCc2ccco2)cc1 | inconclusive: 16.4 µM [inhibitor, partial curve] | –
62 | COc1ccc(/C=C(/NC(=O)c2ccccc2)c2nc3ccc(Cl)cc3[nH]2)cc1OC | inconclusive: 29.1 µM [inhibitor, single point] | –
63 | Cc1cccc(CN2C(=O)N/C(=C/c3cc(C)n(-c4cc(C)ccn4)c3C)C2=O)c1 | inconclusive: 29.1 µM [inhibitor, single point] | –
64 | COc1ccc(-c2nc(CS(=O)CC(=O)NCc3ccc4c(c3)OCO4)c(C)o2)cc1OC (stereo unspecified) | active: 14.6 µM | –
65 | Cc1ccc(C(=O)COC(=O)CCC(=O)NC2CCCCC2)cc1C | – | inactive: 11.3%
66 | COc1cccc2cc(C(=O)NCc3ccccc3Cl)c(=O)oc12 | inconclusive: 3.26 µM [activator, full curve, poor fit] | –
67 | O=C(Cn1cnc2ccccc2c1=O)c1ccccc1 | inconclusive: 20.6 µM [activator, single point] | –
68 | COc1ccc(N2CCN(S(=O)(=O)c3cc(Br)cnc3N)CC2)cc1 | inconclusive: 29.1 µM [activator, single point] | –
69 | CCc1nc(NCc2ccccn2)c2oc3ccccc3c2n1 | active: 18.4 µM | –
70 | CCOc1cc(S(=O)(=O)NCc2ccncc2)c(C)cc1C | inconclusive: 4.11 µM [inhibitor, full curve] | –
71 | O=C(Nc1cccc(-c2ccc(N3CCOCC3)nn2)c1)c1ccccc1Cl | inconclusive: 2.91 µM [activator, full curve, poor fit] | –
